The results in this text go back to PMC7696177.

Sequences of proteins named here, by UniProt entry; tags and fusion partners are left off. Residues count along the entry.
UniProt Q8R4B8: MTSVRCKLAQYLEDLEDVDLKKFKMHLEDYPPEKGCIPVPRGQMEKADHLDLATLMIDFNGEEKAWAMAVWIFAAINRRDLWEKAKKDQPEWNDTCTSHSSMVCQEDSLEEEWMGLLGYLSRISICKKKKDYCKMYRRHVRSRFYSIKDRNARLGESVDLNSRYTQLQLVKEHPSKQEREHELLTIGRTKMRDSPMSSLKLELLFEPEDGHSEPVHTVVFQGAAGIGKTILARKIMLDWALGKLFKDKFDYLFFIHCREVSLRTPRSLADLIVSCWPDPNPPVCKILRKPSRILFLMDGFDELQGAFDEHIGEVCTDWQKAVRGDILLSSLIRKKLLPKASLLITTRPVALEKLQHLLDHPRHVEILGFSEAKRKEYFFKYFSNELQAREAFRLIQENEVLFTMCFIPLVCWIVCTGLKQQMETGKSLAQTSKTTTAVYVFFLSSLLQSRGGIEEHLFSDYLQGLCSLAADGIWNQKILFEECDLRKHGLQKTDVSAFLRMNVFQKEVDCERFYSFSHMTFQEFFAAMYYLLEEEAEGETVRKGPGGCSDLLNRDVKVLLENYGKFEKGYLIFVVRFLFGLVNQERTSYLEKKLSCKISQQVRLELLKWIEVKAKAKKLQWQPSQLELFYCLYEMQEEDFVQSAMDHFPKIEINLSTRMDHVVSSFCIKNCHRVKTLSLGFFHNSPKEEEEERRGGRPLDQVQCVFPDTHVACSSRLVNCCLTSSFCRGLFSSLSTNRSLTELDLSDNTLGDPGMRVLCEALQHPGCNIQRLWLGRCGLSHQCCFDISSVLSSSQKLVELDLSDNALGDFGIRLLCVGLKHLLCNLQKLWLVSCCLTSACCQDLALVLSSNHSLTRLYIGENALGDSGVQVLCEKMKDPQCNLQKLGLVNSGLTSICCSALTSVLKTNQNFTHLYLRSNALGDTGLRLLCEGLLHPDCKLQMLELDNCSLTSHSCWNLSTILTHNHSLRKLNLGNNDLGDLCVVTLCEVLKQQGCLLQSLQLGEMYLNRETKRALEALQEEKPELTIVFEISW
UniProt Q96P20: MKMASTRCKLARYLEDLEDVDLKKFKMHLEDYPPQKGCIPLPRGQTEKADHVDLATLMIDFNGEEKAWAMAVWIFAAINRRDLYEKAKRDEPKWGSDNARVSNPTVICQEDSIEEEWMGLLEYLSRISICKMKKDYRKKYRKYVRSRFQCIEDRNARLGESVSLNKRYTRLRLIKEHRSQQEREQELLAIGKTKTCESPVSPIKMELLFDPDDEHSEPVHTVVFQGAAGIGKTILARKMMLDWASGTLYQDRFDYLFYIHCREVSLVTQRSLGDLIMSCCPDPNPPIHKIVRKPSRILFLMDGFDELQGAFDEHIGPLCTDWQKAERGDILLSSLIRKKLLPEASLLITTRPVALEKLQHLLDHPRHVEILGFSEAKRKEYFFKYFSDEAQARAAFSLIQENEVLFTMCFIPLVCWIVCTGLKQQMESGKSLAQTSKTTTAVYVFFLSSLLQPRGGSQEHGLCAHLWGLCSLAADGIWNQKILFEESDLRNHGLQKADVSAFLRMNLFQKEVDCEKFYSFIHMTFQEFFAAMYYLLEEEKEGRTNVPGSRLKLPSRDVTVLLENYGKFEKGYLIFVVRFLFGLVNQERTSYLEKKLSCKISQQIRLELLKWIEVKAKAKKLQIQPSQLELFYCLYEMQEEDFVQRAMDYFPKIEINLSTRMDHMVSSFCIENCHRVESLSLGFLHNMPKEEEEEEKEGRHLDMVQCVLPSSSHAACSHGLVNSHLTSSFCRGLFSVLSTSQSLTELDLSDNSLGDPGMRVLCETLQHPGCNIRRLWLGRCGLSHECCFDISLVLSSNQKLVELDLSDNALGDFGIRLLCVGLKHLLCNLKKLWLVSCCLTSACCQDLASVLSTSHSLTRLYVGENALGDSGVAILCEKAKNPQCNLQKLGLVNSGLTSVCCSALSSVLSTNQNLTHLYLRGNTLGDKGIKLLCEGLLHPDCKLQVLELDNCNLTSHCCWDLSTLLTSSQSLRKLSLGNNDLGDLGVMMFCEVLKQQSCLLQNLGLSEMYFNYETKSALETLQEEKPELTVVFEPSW
UniProt A0A125YVM0, residues 195-288: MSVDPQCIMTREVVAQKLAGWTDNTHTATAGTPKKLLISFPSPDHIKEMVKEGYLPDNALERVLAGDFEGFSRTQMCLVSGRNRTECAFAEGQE

The target in assay [1] is GST-GRA9 C-terminal domain (aa 195-288), expressed in 293T cells (Toxoplasma gondii). The assay can be described thus: pull-down; 293T cells 48 h after transfection with mammalian GST or GST-GRA9 and truncated mutant constructs together with Flag-NLRP3; GST pull down, IB with αFlag.
Assay [2] has as its target NLRP3, endogenous in mouse bone marrow-derived macrophages and splenocytes (mouse (endogenous in BMDMs and splenocytes of C57BL/6 mice)) (UniProt Q8R4B8). The experiment in a line: co-IP; splenocytes of CLP mice treated with recombinant protein by intraperitoneal injection; IP with αHis or αNLRP3, IB with αNLRP3, αASC or αHis; only the binder purified.
The target is the same in assay [3]. The assay can be described thus: co-IP; BMDMs primed with LPS (100 ng/mL), stimulated with ATP (5 mM) and treated with purified rVehicle, rGRA9C or rGRA9C^Q200L (0.1, 1 or 10 μg/mL); IP with αHis or αNLRP3, IB with αNLRP3, αASC or αHis; only the binder purified.

These are yes or no findings as the source states them, for the method shown. Binding seen in cells or lysates may run through a third protein. Some results given as binding are weak or reduced against the parent protein; the word gives no strength.

Regarding “Flag-NLRP3 (wild type, full length), expressed in 293T cells (from UniProt Q96P20 1-1036)”, the binding entry in assay [1] was “binds”.
As for “recombinant GRA9C (6xHis-GRA9C, GRA9 residues 195-288) (from UniProt A0A125YVM0 195-288) (domain or fragment)”, the binding result in assay [2] and in assay [3] was “binds” in each case.
